Reference: patent US20140341983A1, “SMART™ SOLID ORAL DOSAGE FORMS” (priority 2011, published 2014)

Experiment: Pilot SAW sensor detection of flavorants in breath after placement on tongue or in mouth
Details: 30 and 500 μg in 50 μL neat ethanol placed on surface of tongue; polymer coatings optimized for propofol

Structure (SMILES) | detection in human breath by SAW sensor
COC(=O)c1ccccc1O [methyl salicylate, methyl-2-hydroxybenzoate] | easily detected
O=Cc1ccccc1 [benzaldehyde] | easily detected
COC(=O)c1ccccc1N [methyl anthranilate] | easily detected
C=C(C)[C@@H]1CC=C(C)C(=O)C1 [L-carvone] | easily detected
COc1cc(C=O)ccc1O [vanillin, 4-hydroxy-3-methoxybenzaldehyde] | weak SAW response
